Measured values: publication PMC12152899, “Disulfide-mediated tetramerization of TRAP1 fosters its antioxidant and pro-neoplastic activities” (Redox Biology, 2025)
Changes are numbered by the printed parent chain. Numbers in names are those of the source. These are yes or no findings as the source states them, for the method shown. Some entries that bind do so weakly or less than the wild type. For some assays here: Where a sequence is shown, tags or fusion partners need not be part of it.

What was measured:
[1] = target: WT HA-linked TRAP1 expressed in TRAP1-silenced (shTRAP1) HeLa cells (human) (UniProt Q12931); test: non-reducing SDS-PAGE and Western blot; TRAP1-silenced HeLa cells expressing HA-linked TRAP1; 100 μM H2O2, 10 μM cisplatin, 100 μM BSO or 10 mM NAC (24 h), co-expression of SOD2 or M-CAT; anti-TRAP1 blot of lysates
[2] = target: endogenous TRAP1 of mouse malignant peripheral nerve sheath tumor (sMPNST) cells (mouse (endogenous in sMPNST)) (UniProt Q9CQN1); test: non-reducing SDS-PAGE and Western blot; sMPNST cells, endogenous TRAP1; mitochondrial extracts, basal or H2O2; cell extracts after hypoxia 2 h and reoxygenation 10 min
[3] = target: HA-TRAP1 wild-type (human) expressed in TRAP1-KO sMPNST cells (human) (UniProt Q12931); test: non-reducing SDS-PAGE and Western blot; mitochondrial extracts of TRAP1-KO sMPNST cells reconstituted with human TRAP1; basal, 1 mM diamide or 100 μM H2O2 for 30 min
[4] = target: endogenous TRAP1 of human A375 melanoma cells (human (endogenous in A375)) (UniProt Q12931); test: non-reducing SDS-PAGE and Western blot; mitochondrial extracts of A375 cells treated with 100 μM H2O2 (30 min), 1 mM diamide (30 min) or 10 μM oligomycin (4 h), alone or combined; anti-TRAP1 blot; high-molecular-weight form
[5] = target: endogenous TRAP1 of human A375 melanoma cells (human (endogenous in A375)) (UniProt Q12931); test: non-reducing SDS-PAGE and Western blot; as a5, with DTT to reduce disulfides
[6] = target: recombinant human TRAP1 C261S/C573R double mutant (human) (UniProt Q12931); test: SEC; Superdex 200 HR 10/30, 20 mM TRIS, 150 mM NaCl, pH 7; recombinant TRAP1 incubated with 100 μM H2O2; additional peak beside the dimer; dimers to tetramer; both purified
[7] = target: recombinant human TRAP1 C261S/C573R double mutant (human) (UniProt Q12931); test: non-reducing SDS-PAGE; purified recombinant TRAP1, DTT removed, 150 mM NaCl, 50 mM TRIS, pH 7.5, 37 °C, 100 μM H2O2 for 30 min (1 nM to 100 μM in Fig. 1B); disulfide-linked band above 170 kDa; Coomassie or stain-free; both purified
[8] = target: C261S/C573R HA-linked TRAP1 expressed in TRAP1-silenced (shTRAP1) HeLa cells (human) (UniProt Q12931); test: non-reducing SDS-PAGE and Western blot; TRAP1-silenced HeLa cells expressing HA-linked TRAP1; 100 μM H2O2, 10 μM cisplatin, 100 μM BSO or 10 mM NAC (24 h), co-expression of SOD2 or M-CAT; anti-TRAP1 blot of lysates
[9] = target: HA-TRAP1 C261S/C573R mutant (human) expressed in TRAP1-KO sMPNST cells (human) (UniProt Q12931); test: non-reducing SDS-PAGE and Western blot; mitochondrial extracts of TRAP1-KO sMPNST cells reconstituted with human TRAP1; basal, 1 mM diamide or 100 μM H2O2 for 30 min
[10] = target: recombinant human TRAP1 C501S (human) (UniProt Q12931); test: non-reducing SDS-PAGE; as a1, H2O2-treated recombinant TRAP1 with DTT added (10 mM in the legend, 50 mM in the methods); both purified
[11] = target: recombinant human TRAP1 C527A (human) (UniProt Q12931); test: as above
[12] = target: recombinant human TRAP1 C261S (human) (UniProt Q12931); test: as above
[13] = target: recombinant human TRAP1 C573R (human) (UniProt Q12931); test: as above
[14] = target: recombinant human TRAP1 C501S/C527A double mutant (human) (UniProt Q12931); test: as above

B1: WT HA-linked TRAP1 expressed in TRAP1-silenced (shTRAP1) HeLa cells (protein, UniProt Q12931 60-704)
chain: STQTAEDKEEPLHSIISSTESVQGSTSKHEFQAETKKLLDIVARSLYSEKEVFIRELISNASDALEKLRHKLVSDGQALPEMEIHLQTNAEKGTITIQDTGIGMTQEELVSNLGTIARSGSKAFLDALQNQAEASSKIIGQFGVGFYSAFMVADRVEVYSRSAAPGSLGYQWLSDGSGVFEIAEASGVRTGTKIIIHLKSDCKEFSSEARVRDVVTKYSNFVSFPLYLNGRRMNTLQAIWMMDPKDVREWQHEEFYRYVAQAHDKPRYTLHYKTDAPLNIRSIFYVPDMKPSMFDVSRELGSSVALYSRKVLIQTKATDILPKWLRFIRGVVDSEDIPLNLSRELLQESALIRKLRDVLQQRLIKFFIDQSKKDAEKYAKFFEDYGLFMREGIVTATEQEVKEDIAKLLRYESSALPSGQLTSLSEYASRMRAGTRNIYYLCAPNRHLAEHSPYYEAMKKKDTEVLFCFEQFDELTLLHLREFDKKKLISVETDIVVDHYKEEKFEDRSPAAECLSEKETEELMAWMRNVLGSRVTNVKVTLRLDTHPAMVTVLEMGAARHFLRMQQLAKTQEERAQLLQPTLEINPRHALIKKLNQLRASEPGLAQLLVDQIYENAMIAAGLVDDPRAMVGRLNELLVKALERH
binding [1]: binds

B2: endogenous TRAP1 of mouse malignant peripheral nerve sheath tumor (sMPNST) cells (protein, UniProt Q9CQN1 61-706)
chain: STQAAEDKEEESLHSIISNTEAVRGSVSKHEFQAETKKLLDIVARSLYSEKEVFIRELISNASDALEKLRHKLVCEGQVLPEMEIHLQTDAKKGTITIQDTGIGMTQEELVSNLGTIARSGSKAFLEALQNQAETSSKIIGQFGVGFYSAFMVADKVEVYSRSAAPESPGYQWLSDGSGVFEIAEASGVRPGTKIIIHLKSDCKDFASESRVQDVVTKYSNFVSFPLYLNGKRINTLQAIWMMDPKDISEFQHEEFYRYIAQAYDKPRFTLHYKTDAPLNIRSIFYVPEMKPSMFDVSRELGSSVALYSRKVLIQTKAADILPKWLRFIRGVVDSEDIPLNLSRELLQESALIRKLRDVLQQRLIKFFIDQSKKDAEKYAKFFEDYGLFMREGIVTTAEQDIKEDIAKLLRYESSALPAGQLTSLPDYASRMQAGTRNIYYLCAPNRHLAEHSPYYEAMKQKHTEVLFCYEQFDELTLLHLREFDKKKLISVETDIVVDHYKEEKFEDTSPADERLSEKETEDLMAWMRNALGSRVTNVKVTFRLDTHPAMVTVLEMGAARHFLRMQQLAKTQEERAQLLQPTLEINPRHTLIKKLCQLRESEPELAQLLVDQIYENAMIAAGLVDDPRAMVGRLNDLLVKVLEKH
binding [2]: binds

B3: HA-TRAP1 wild-type (human) expressed in TRAP1-KO sMPNST cells (protein, UniProt Q12931 60-704)
chain: B1 chain
binding [3]: binds

B4: endogenous TRAP1 of human A375 melanoma cells (protein, UniProt Q12931 60-704)
chain: B1 chain
binding [4]: binds | binding [5]: no binding (condition: with DTT)

B5: recombinant human TRAP1 C261S/C573R double mutant (protein, UniProt Q12931 60-704)
chain: B1 chain with C202S, C514R
binding [6]: no binding | binding [7]: no binding

B6: C261S/C573R HA-linked TRAP1 expressed in TRAP1-silenced (shTRAP1) HeLa cells (protein, UniProt Q12931 60-704)
chain: B1 chain with C202S, C514R
binding [8]: no binding

B7: HA-TRAP1 C261S/C573R mutant (human) expressed in TRAP1-KO sMPNST cells (protein, UniProt Q12931 60-704)
chain: B1 chain with C202S, C514R
binding [9]: no binding

B8: recombinant human TRAP1 C501S (natural protein, UniProt Q12931 60-704, looked up)
chain: B1 chain with C442S
notes: Cloned in pET-26b(+); same construct as m1 with the mutation; source: E. coli BL21(DE3), purified (Ni-NTA)
binding [10]: no binding (condition: with DTT)

B9: recombinant human TRAP1 C527A (natural protein, UniProt Q12931 60-704, looked up)
chain: B1 chain with C468A
notes: as for B8
binding [11]: no binding (condition: with DTT)

B10: recombinant human TRAP1 C261S (natural protein, UniProt Q12931 60-704, looked up)
chain: B1 chain with C202S
notes: as for B8
binding [12]: no binding (condition: with DTT)

B11: recombinant human TRAP1 C573R (natural protein, UniProt Q12931 60-704, looked up)
chain: B1 chain with C514R
notes: as for B8
binding [13]: no binding (condition: with DTT)

B12: recombinant human TRAP1 C501S/C527A double mutant (natural protein, UniProt Q12931 60-704, looked up)
chain: B1 chain with C442S, C468A
notes: Cloned in pET-26b(+); same construct as m1 with the mutations; source: E. coli BL21(DE3), purified (Ni-NTA)
binding [14]: no binding (condition: with DTT)
